PubChem BioAssay (EPA / NIEHS)
The shares of active, inactive and inconclusive entries below differ from those in the screen. For part of these data: Potencies beside an inconclusive call are fits to weak or partial responses and may not hold up. The source made the active and inactive calls. How the source made its calls: active means hit-call score of the fitted dose curve at least 0.9, where 1 is the maximum; inconclusive means response in the unintended direction; inactive means score below 0.9.

Chains of the proteins cited; added tags and fusions are not shown. Lines headed by an entry give the natural chain unless they say otherwise; changes in a name come on top.
UniProt Q9UNQ0: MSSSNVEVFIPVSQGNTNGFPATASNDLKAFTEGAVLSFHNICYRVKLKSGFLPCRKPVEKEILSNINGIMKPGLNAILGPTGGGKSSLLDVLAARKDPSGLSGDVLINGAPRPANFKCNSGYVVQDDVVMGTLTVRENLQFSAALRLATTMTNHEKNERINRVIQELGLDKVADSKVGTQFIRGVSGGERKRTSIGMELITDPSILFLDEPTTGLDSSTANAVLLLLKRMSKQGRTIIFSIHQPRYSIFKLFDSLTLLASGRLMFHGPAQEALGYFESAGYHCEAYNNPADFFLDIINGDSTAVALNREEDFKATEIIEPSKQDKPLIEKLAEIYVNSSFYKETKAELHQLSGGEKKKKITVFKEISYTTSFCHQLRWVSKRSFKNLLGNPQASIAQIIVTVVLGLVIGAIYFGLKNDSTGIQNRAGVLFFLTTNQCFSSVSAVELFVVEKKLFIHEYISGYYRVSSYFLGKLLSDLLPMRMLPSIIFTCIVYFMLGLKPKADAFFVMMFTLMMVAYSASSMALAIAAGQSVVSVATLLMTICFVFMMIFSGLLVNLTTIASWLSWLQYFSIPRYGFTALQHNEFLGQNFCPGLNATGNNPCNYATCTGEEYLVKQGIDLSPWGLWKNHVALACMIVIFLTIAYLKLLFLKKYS

Tests used:
[1] = Tanguay_ZF_120hpf_BRAI_legacy: (Legacy) Oregon State University Tanguay Lab 120 Hour Post-fertilization zebrafish Assay for Brain Malformation (AID 2283641)
Procedure, shortened: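 Brain malformation in Tropical 5D zebrafish was recorded as a binary endpoint after static compound exposure from early development to 120 hpf at 28C. Activity was analysed against DMSO as negative control.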

[2] = read-out: ABC Transporter (ABCB1), ABCB1 (gene 5243); assay: CLD_ABCB1_6hr: CellzDirect (CLD) Gene Expression Assay for ABC Transporter (ABCB1) at 6 hours (AID 2283659);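 on outcome: hits raise ABCB1 transcript above the DMSO vehicle baseline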
Procedure, shortened: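 ABCB1 transcript measured by quantitative nuclease protection assay, chemiluminescent read-out, 6 h after dosing human hepatocyte cultures (0.2% DMSO vehicle, daily redosing). Activity fitted as increase over DMSO baseline; cytotoxicity flagged by phase-contrast morphology.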

[3] = read-out: Broad substrate specificity ATP-binding cassette transporter ABCG2 (Homo sapiens) (UniProt Q9UNQ0); assay: CLD_ABCG2_6hr: CellzDirect (CLD) Gene Expression Assay for ABC Transporter (ABCG2) at 6 hours (AID 2283660)
Procedure, shortened: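 ABCG2 mRNA induction measured by qNPA chemiluminescence in human primary hepatocyte cultures, 6 h post-dose. Chemicals tested at several concentrations against a 0.2% DMSO vehicle; positive-direction fit relative to DMSO.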

[4] = read-out: xenobiotic metabolism (CYP1A2), CYP1A2 (gene 1544); assay: CLD_CYP1A2_6hr: CellzDirect (CLD) Gene Expression Assay for xenobiotic metabolism (CYP1A2) at 6 hours (AID 2283663);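 on AC50: potency is for induction meaning a rise in mRNA above DMSO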
Procedure, shortened: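 mRNA levels quantified by quantitative nuclease protection assay with chemiluminescence, 6 h after dosing human primary hepatocyte cultures (two donors) across several concentrations, vehicle 0.2% DMSO. Induction fitted upward versus DMSO; phase-contrast cytotoxicity annotated.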

[5] = read-out: xenobiotic metabolism (CYP2C9), CYP2C9 (gene 1559); assay: CLD_CYP2C9_6hr: CellzDirect (CLD) Gene Expression Assay for xenobiotic metabolism (CYP2C9) at 6 hours (AID 2283664)
Procedure, shortened: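 Readout is qNPA chemiluminescence of CYP2C9 mRNA, taken 6 h after dosing of cultured human liver primary cells at several concentrations. Activity is the increase over 0.2% DMSO baseline. Morphology-based cytotoxicity flagged yes/no.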

[6] = read-out: organic anion transporter (SLCO1B1), SLCO1B1 (gene 10599); assay: CLD_SLCO1B1_6hr: CellzDirect (CLD) Gene Expression Assay for organic anion transporter (SLCO1B1) at 6 hours (AID 2283668);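 further: active means mRNA induction above DMSO baseline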
Procedure, shortened: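 SLCO1B1 mRNA induction measured 6 h after dosing by quantitative nuclease protection with chemiluminescent read-out, in human primary hepatocyte cultures given chemicals at several concentrations (vehicle 0.2% DMSO). Increase over DMSO baseline fitted; morphology-based cytotoxicity annotated yes/no.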

[7] = Tanguay_ZF_120hpf_SOMI_legacy: (Legacy) Oregon State University Tanguay Lab 120 Hour Post-fertilization zebrafish Assay for Somite Malformation (AID 2283647)
Procedure, shortened: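 5D WT zebrafish; chorion removed 4 hpf; 1 embryo/well from 6 hpf; static exposure to 120 hpf, 28C, 0.64% DMSO final. Endpoint: somite malformation, binary, brightfield. Mortality excluded.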

[8] = Tanguay_ZF_120hpf_CFIN_legacy: (Legacy) Oregon State University Tanguay Lab 120 Hour Post-fertilization zebrafish Assay for Caudal Fin Malformation (AID 2283649)
Procedure, shortened: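 Embryos were collected from Tropical 5D wild-type adults and dechorionated at 4 hpf. At 6 hpf each was exposed, one per well, at 0.64% DMSO and 28C. At 120 hpf fin morphology was scored; dead embryos were excluded.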

[9] = Tanguay_ZF_120hpf_TRUN_legacy: (Legacy) Oregon State University Tanguay Lab 120 Hour Post-fertilization zebrafish Assay for Truncated Body (AID 2283655)
Procedure, shortened: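 5D wild-type larvae; pronase dechorionation; static exposure 6→120 hpf, 28C; DMSO 0.64% final; 5uM trimethyltin chloride positive control. Readout: presence/absence of truncated body, analyzed relative to DMSO.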

[10] = Tanguay_ZF_120hpf_PFIN_legacy: (Legacy) Oregon State University Tanguay Lab 120 Hour Post-fertilization zebrafish Assay for Pectoral Fin Malformation (AID 2283648);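 further: each larva judged yes or no for fin defect by brightfield with dead larvae skipped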
Procedure, shortened: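 Scoring of pectoral fin malformation was binary, made at 120 hpf on larvae exposed statically from 6 hpf after enzymatic chorion removal. Activity was fitted upward relative to DMSO controls at 0.64% (vol/vol).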

[11] = Tanguay_ZF_120hpf_NC_legacy: (Legacy) Oregon State University Tanguay Lab 120 Hour Post-fertilization zebrafish Assay for Notochord and Tail Malformation (AID 2283656)
Procedure, shortened: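 Binary notochord-distortion calls, made by brightfield inspection, form the read-out; activity is fitted in the positive direction against DMSO. Exposure ran statically from 6 to 120 hpf at 28C with 0.64% DMSO.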

[12] = Tanguay_ZF_120hpf_TR_legacy: (Legacy) Oregon State University Tanguay Lab 120 Hour Post-fertilization zebrafish Assay for Touch Response (AID 2283667)
Procedure, shortened: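 Readout is presence or absence of touch response in 120 hpf zebrafish larvae, assessed by brightfield observation after continuous static exposure at 28C. Final vehicle was 0.64% (vol/vol) DMSO.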

[13] = Tanguay_ZF_120hpf_CIRC_legacy: (Legacy) Oregon State University Tanguay Lab 120 Hour Post-fertilization zebrafish Assay for Circulatory Malformation (AID 2283651)
Procedure, shortened: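 Binary circulatory-malformation call at 120 hpf via brightfield imaging, relative to DMSO controls. Embryos (5D strain, chorion removed) received static, light-shielded exposure at 28C.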

[14] = read-out: alkyl and aryl transferase (GSTA2), GSTA2 (gene 2939); assay: CLD_GSTA2_6hr: CellzDirect (CLD) Gene Expression Assay for alkyl and aryl transferase (GSTA2) at 6 hours (AID 2283666)
Procedure, shortened: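 GSTA2 transcript induction at 6 h, quantified by nuclease protection (qNPA) with chemiluminescent detection, in human liver primary hepatocytes exposed to several compound concentrations with 0.2% DMSO as baseline; phase-contrast morphology annotated apparent cytotoxicity.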

[15] = Tanguay_ZF_120hpf_PIG_legacy: (Legacy) Oregon State University Tanguay Lab 120 Hour Post-fertilization zebrafish Assay for Pigmentation Malformation (AID 2283650)
Procedure, shortened: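 Endpoint is incidence of abnormal pigmentation at 120 hpf in dechorionated 5D zebrafish exposed singly from 6 hpf at 28C, DMSO vehicle at 0.64%. Embryos dying by 24 or 120 hpf are excluded from scoring.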

[16] = Tanguay_ZF_120hpf_SWIM_legacy: (Legacy) Oregon State University Tanguay Lab 120 Hour Post-fertilization zebrafish Assay for Swim Bladder Malformation (AID 2283654);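 further: swim bladder malformation in each larva scored yes or no under brightfield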
Procedure, shortened: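 Static waterborne exposure of single dechorionated Tropical 5D zebrafish embryos, 6–120 hpf, 28C, 0.64% DMSO final. Read-out: swim bladder malformation, present/absent, relative to DMSO negative control; trimethyltin chloride 5uM served as positive control.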

[17] = CCTE_Simmons_CellTiterGLO_HEK293T: Viability Assessment in CCTE's Assays for Thyroperoxidase (TPO) Inhibition, Simmons Lab (AID 2283665)
Procedure, shortened: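 ATP depletion measured in HEK293T cells after 24 h dosing (8 concentrations, 5 nM–87.5 uM final; DMSO 0.5%) using CellTiter-Glo luminescence; curves fit for loss of signal against DMSO baseline.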

## CCN(Cc1c(F)cccc1Cl)c1c([N+](=O)[O-])cc(C(F)(F)F)cc1[N+](=O)[O-]
[1]
  AC50: inconclusive: 1.48 µM
[2]
  AC50: inconclusive: 20 µM
[3]
  AC50: inconclusive: 20 µM
[4]
  AC50: active: 1.74 µM
[5]
  AC50: inconclusive: 20 µM
[6]
  AC50: inconclusive: 20 µM

## c1cc(-c2ccncc2)ccn1
[7]
  AC50: inconclusive: 1.95 µM
[8]
  AC50: inconclusive: 202 µM
[9]
  AC50: inconclusive: 1.73 µM

## Nc1nc2ncc(CNc3ccc(C(=O)N[C@@H](CCC(=O)O)C(=O)O)cc3)nc2c(=O)[nH]1
[7]
  AC50: inconclusive: 0.128 µM
[10]
  AC50: inconclusive: 202 µM
[11]
  AC50: inconclusive: 120 µM
[12]
  AC50: inconclusive: 62 µM

## NC(=O)N1C(=O)C(C(=O)c2cc(Cl)cs2)c2cc(F)c(Cl)cc21 (configuration not stated)
[7]
  outcome: inactive
[8]
  outcome: inactive

## CCCCOC(=O)CC(CC(=O)OCCCC)(OC(C)=O)C(=O)OCCCC
[7]
  AC50: inconclusive: 5.4 µM
[8]
  AC50: inconclusive: 30.4 µM
[11]
  AC50: inconclusive: 1.4 µM

## CCCCC(CC)COP(=O)(OCC(CC)CCCC)OCC(CC)CCCC (configuration not stated)
[1]
  AC50: inconclusive: 50.2 µM
[8]
  outcome: inactive
[13]
  AC50: inconclusive: 40.3 µM

## CCC(C)OC(=O)N1CCCCC1CCO (configuration not stated)
[1]
  outcome: inactive
[8]
  AC50: inconclusive: 149 µM
[5]
  AC50: inconclusive: 0.0325 µM
[14]
  outcome: inactive

## CC(C)CC(C)(O)C#CC(C)(O)CC(C)C (configuration not stated)
[7]
  AC50: inconclusive: 2.91 µM
[10]
  AC50: inconclusive: 159 µM
[8]
  AC50: inconclusive: 202 µM
[15]
  AC50: inconclusive: 12.9 µM
[13]
  AC50: inconclusive: 59.3 µM
[16]
  AC50: inconclusive: 35.8 µM
[9]
  AC50: inconclusive: 4.38 µM

## CCCCCCCCCCCCN1CCCC1=O
[7]
  outcome: inactive
[8]
  AC50: active: 41 µM
[9]
  AC50: active: 34.7 µM

## CCCCCCCCCCCC(=O)OC
[1]
  AC50: inconclusive: 67.8 µM
[12]
  outcome: inactive

## Cc1ccc(Cl)cc1
[7]
  AC50: inconclusive: 11.2 µM
[15]
  AC50: inconclusive: 3.08 µM
[13]
  AC50: inconclusive: 47.2 µM
[9]
  AC50: inconclusive: 87.1 µM

## Cn1cc[nH]c1=S
[7]
  outcome: inactive
[10]
  AC50: inconclusive: 202 µM
[9]
  AC50: inconclusive: 48 µM
[11]
  outcome: inactive
[12]
  AC50: inconclusive: 100 µM

## CC(=O)c1ccccc1
[7]
  outcome: inactive

## Nc1ccccc1N
[1]
  AC50: inconclusive: 0.629 µM
[16]
  AC50: inconclusive: 41.8 µM
[9]
  AC50: active: 10.9 µM

## OC[C@@H](O)[C@@H](O)[C@H](O)[C@H](O)CO
[7]
  outcome: inactive
[15]
  outcome: inactive
[13]
  AC50: inconclusive: 15.2 µM
[9]
  AC50: inconclusive: 43.8 µM

## Cc1cccc(C)c1O
[7]
  AC50: inconclusive: 202 µM
[8]
  AC50: inconclusive: 15.1 µM
[9]
  outcome: inactive

## CCCCCCc1ccc(O)cc1O
[7]
  AC50: inconclusive: 4.61 µM
[8]
  AC50: inconclusive: 2.08 µM

## Cc1ccc(O)cc1
[7]
  AC50: inconclusive: 0.724 µM
[8]
  AC50: inconclusive: 11 µM
[16]
  AC50: inconclusive: 46.8 µM

## CC(C)(C)c1cccc(C(C)(C)C)c1O
[7]
  outcome: inactive
[10]
  AC50: inconclusive: 0.13 µM
[8]
  AC50: inconclusive: 73.7 µM
[9]
  AC50: inconclusive: 7.36 µM
[12]
  AC50: inconclusive: 34 µM

## COC(=O)CSc1cc(N=c2sc(=O)n3n2CCCC3)c(F)cc1Cl
[7]
  AC50: inconclusive: 38.1 µM
[8]
  AC50: inconclusive: 18 µM
[13]
  outcome: inactive
[2]
  outcome: inactive
[4]
  outcome: inactive
[5]
  outcome: inactive
[14]
  AC50: inconclusive: 3.97 µM
[6]
  AC50: inconclusive: 0.0004 µM

## Nc1nc(N)c2nc(CNc3ccc(C(=O)N[C@@H](CCC(=O)O)C(=O)O)cc3)cnc2n1
[1]
  outcome: inactive
[8]
  AC50: inconclusive: 23.6 µM
[16]
  AC50: inconclusive: 5.22 µM
[11]
  outcome: inactive

## O=S(=O)(O)c1ccc(N=Nc2c(O)ccc3cc(S(=O)(=O)O)ccc23)cc1
[7]
  outcome: inactive
[8]
  AC50: inconclusive: 171 µM
[13]
  outcome: inactive
[9]
  AC50: inconclusive: 129 µM

## COc1ccc([N+](=O)[O-])cc1N
[1]
  AC50: inconclusive: 1.32 µM
[10]
  outcome: inactive
[15]
  AC50: inconclusive: 27.9 µM
[11]
  AC50: inconclusive: 7.54 µM
[17]
  outcome: inactive

## c1ccc2cc3ccccc3cc2c1
[1]
  AC50: inconclusive: 41.1 µM
[13]
  AC50: inconclusive: 48.4 µM
[11]
  AC50: inconclusive: 39.5 µM

## CC(=O)OCCC(C)C
[7]
  AC50: inconclusive: 144 µM
[10]
  AC50: inconclusive: 179 µM
[15]
  AC50: inconclusive: 62.5 µM
[13]
  AC50: inconclusive: 172 µM
[12]
  outcome: inactive

## CCNc1ccccc1
[7]
  outcome: inactive

## CCCCCCCCCCCCCCC
[1]
  outcome: inactive
[15]
  AC50: inconclusive: 31.1 µM
[12]
  AC50: inconclusive: 22.3 µM

## CC1(C)CC(N=C=O)CC(C)(CN=C=O)C1 (configuration not stated)
[1]
  outcome: inactive
[8]
  outcome: inactive
